Test results published in PubChem BioAssay AID504444 (National Center for Advancing Translational Sciences (NCATS), 2011).
Hit rate of the full screen: of about 360,000 compounds, about 7,500 (2.1%) were called active. Inconclusive means that the source gave no clear call. Such entries were picked first, then a sample of the others. Calls follow the shape of the dose curve; as a rule, active = well fitted inhibition curve with a large enough effect; inconclusive = small, poorly fitted or top-dose-only effect, or effect the other way; inactive = flat fitted curve, though single readings scatter. Where the call is inconclusive, the potency comes from a doubtful curve fit.

assay: Nrf2 qHTS screen for inhibitors; settings: A549 ARE-Fluc reporter, luciferase luminescence, 18-24 h; activity change, negative = inhibition: at 46 µM (top of the series); also: nearly all actives have a fitted effect of over 60% in size
Method in brief: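 Concentration-response testing used A549 ARE_Fluc cells at 5000 cells/well. Following an 18-24 h compound incubation, viability was read by fluorescence (Ex 405/Em 525) and luciferase output by luminescence.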
% is scaled to controls: 0 for no effect and ±100 for the full control effect; potency is read from the fitted curve at half-maximal effect.

Structure (SMILES)	Potency	activity change, negative = inhibition
O=C(N/N=C/c1ccc(OC(=O)c2ccccc2Cl)cc1)c1ccccn1	inconclusive: 9.2 µM [activator, partial curve]	–
CCc1cccc(C)c1NS(=O)(=O)c1cc(-c2cc(C)no2)ccc1C	inconclusive: 23.1 µM [activator, single point]	–
Cc1ccc(NCc2nc3ccccc3n2C)cc1C	inconclusive: 5.8 µM [activator, partial curve]	–
c1ccc2c(Nc3nc4c(s3)CCCC4)cccc2c1	inconclusive: 8.2 µM [activator, partial curve]	–
O=c1c2c(-c3ccccc3)csc2ncn1/N=C/c1cccc([N+](=O)[O-])c1O	inconclusive: 29.1 µM [falling, single point]	–
CCCc1cc(C(=O)N(C)CC(=O)Nc2ccc(OCC)c(OCC)c2)sc1C	inconclusive: 29.1 µM [falling, single point]	–
CCOC(=O)/C(N=Nc1ccc2c(c1)OCO2)=C(\C)O	inconclusive: 2.91 µM [activator, full curve, poor fit]	–
Cc1ccc(-c2nc(N)n(C(=O)c3cccnc3)n2)cc1	–	inactive: 1.22%
CC1=NNC(=O)C1Oc1ccccc1 (stereo unspecified)	inconclusive: 4.11 µM [falling, single point]	–
CCn1c(C)nc2cc(C(=O)NN=C(C)c3ccc(C#N)cc3)ccc21	inconclusive: 25.9 µM [falling, partial curve]	–
Cc1ccc(S(=O)(=O)NCc2ccccc2)cc1C(=O)NCC(C)(C)N1CCOCC1	inconclusive: 20.6 µM [falling, single point]	–
CCCCn1c(SCC(=O)NCc2ccco2)nc2ccc(N3CCOCC3)cc2c1=O	–	inactive: 0.274%
O=C(OCC(=O)c1ccccc1Br)c1ccccn1	inconclusive: 2.59 µM [falling, partial curve]	–
COc1cccc(CNC(=O)CSc2ncc3c(n2)-c2cc(Cl)ccc2N(C)S3(=O)=O)c1	–	inactive: 2.46%
Cc1c(Br)c([N+](=O)[O-])nn1CC(=O)Nc1ccc(Cc2ccncc2)cc1	active: 18.4 µM	–
Cc1nn2cc(-c3ccc(Cl)cc3)nc2s1	inconclusive: 2.91 µM [activator, partial curve]	–
CCCCOc1ccc(C2(C(=O)O)CCCC2)cc1	inconclusive: 9.2 µM [activator, partial curve, poor fit]	–
CC(=O)c1c(C)[nH]c(C(=O)OCCCCN2C(=O)c3ccccc3C2=O)c1C	active: 5.8 µM	–
CCCCn1c(N)c(N(CC(C)C)C(=O)c2cccc(-n3cnnn3)c2)c(=O)[nH]c1=O	–	inactive: 15.7%
O=C(NNC(=O)c1cc2cc(Br)ccc2oc1=O)c1ccc(O)cc1O	inconclusive: 29.1 µM [falling, single point]	–
O=C(C1=C[C@H](C2CCCCC2)C[C@H](OCc2ccc(CO)cc2)O1)N1CCN(Cc2ccccc2)CC1	inconclusive: 20.6 µM [falling, partial curve, poor fit]	–
CSC(=NCc1ccco1)NC#N	–	inactive: 0.488%

Structure (SMILES)	Potency	activity change, negative = inhibition
CCOc1ccc(OCc2nnc(SCC(=O)NC3CCS(=O)(=O)C3)n2-c2ccc(Cl)cc2)cc1 (stereo unspecified)	inconclusive: 29.1 µM [activator, single point]	–
Cc1c(Cl)cccc1NC(=O)CN1C(=O)COc2ccc(S(=O)(=O)N3CCCCCC3)cc21	inconclusive: 18.4 µM [activator, partial curve, poor fit]	–
CCOc1ccc(CCNc2cc(C)nc3ncnn23)cc1OCC	inconclusive: 16.4 µM [falling, partial curve]	–
Cn1cccc1CC(=O)N/N=C\c1c2ccccc2cc2ccccc12	inconclusive: 23.1 µM [falling, partial curve, poor fit]	–
Cc1ccc2[nH]cc(S(=O)(=O)c3ccc(F)cc3)c(=O)c2c1	inconclusive: 20.6 µM [falling, single point]	–
COc1cccc(-c2nc(=S)c3c(o2)CCCC3)c1	–	inactive: 16.6%
O=[N+]([O-])c1cccc(S(=O)(=O)NCCc2cccs2)c1	–	inactive: -9.89%
CCCc1cc(C(=O)NCc2ccccc2)no1	inconclusive: 5.17 µM [activator, partial curve]	–
COc1ccc(Br)cc1/C=C/C(=O)Nc1ccc(C)cc1	inconclusive: 29.1 µM [falling, single point]	–
CCOC(=O)C1=C(C)NC(=O)C1(NC(=O)c1cccnc1)C(F)(F)F (stereo unspecified)	inconclusive: 6.51 µM [falling, single point]	–
O=C(Nc1ccc2nc(SCCOc3ccccc3)sc2c1)c1cccs1	inconclusive: 8.2 µM [falling, partial curve, poor fit]	–
CC(C)(C)OC(=O)n1c2ccsc2c2cnn(Cc3ccccc3F)c(=O)c21	–	inactive: -9.28%
CCc1ccc(/C=C/C(=O)C2C(=O)c3ccccc3C2=O)cc1	inconclusive: 29.1 µM [falling, single point]	–
S=C(NCc1ccccn1)Nc1ccc(Br)cc1Cl	inconclusive: 25.9 µM [activator, single point]	–
Cc1cc(-c2ccc(C)c(S(=O)(=O)Nc3ccccc3C(F)(F)F)c2)on1	inconclusive: 29.1 µM [falling, single point]	–
CC(=O)c1sc2nc(C)c3c(c2c1N)CCCC3	inconclusive: 10.3 µM [falling, partial curve]	–
O=C(NCc1cccnc1)c1cc(Sc2ccc(F)cc2F)nc2ccccc12	inconclusive: 20.6 µM [falling, single point]	–
COc1ccc(C(=O)N(Cc2ccc(N(C)C)cc2)Cc2ccco2)cc1Cl	inconclusive: 29.1 µM [falling, single point]	–
Cc1c(Nc2nc3ccccc3nc2NS(=O)(=O)c2cccc(Cl)c2)c(=O)n(-c2ccccc2)n1C	inconclusive: 8.2 µM [falling, partial curve]	–
O=C(O)c1ccccc1OC(=O)C12CC3CC(CC(C3)C1)C2	inconclusive: 20.6 µM [falling, partial curve, poor fit]	–
O=C(CNC(=O)c1cccc(F)c1)N/N=C/c1cccs1	inconclusive: 25.9 µM [falling, partial curve, poor fit]	–
CCOC(CNC(=O)c1ccc2c(c1)ncn2-c1ccccc1OC)OCC	inconclusive: 29.1 µM [falling, single point]	–

A few values from above.
In Potency, `CCc1ccc(/C=C/C(=O)C2C(=O)c3ccccc3C2=O)cc1` is listed with inconclusive: 29.1 µM [falling, single point]
In Potency, `O=C(Nc1ccc2nc(SCCOc3ccccc3)sc2c1)c1cccs1` is listed with inconclusive: 8.2 µM [falling, partial curve, poor fit]
In Potency, `CCOC(CNC(=O)c1ccc2c(c1)ncn2-c1ccccc1OC)OCC` is listed with inconclusive: 29.1 µM [falling, single point]
In Potency, `COc1ccc(Br)cc1/C=C/C(=O)Nc1ccc(C)cc1` is listed with inconclusive: 29.1 µM [falling, single point]

Further records follow:

Structure (SMILES)	Potency	activity change, negative = inhibition
Cn1cnc([N+](=O)[O-])c1Sc1ncccc1N	inconclusive: 0.58 µM [falling, full curve, poor fit]	–
C1=C(c2sc3ccccc3c2-c2ccc(OCCN3CCOCC3)cc2)CCCC1	–	inactive: 3.08%
Cc1cccc(-c2noc(CNC(=O)c3ccc4c(c3)OCO4)n2)c1	inconclusive: 29.1 µM [falling, single point]	–
COc1ccc(OCCCC(=O)Nc2ccc(OC)c(S(=O)(=O)N3CCOCC3)c2)cc1	–	inactive: -14.1%
Cc1cccc(Nc2ccc(C(=O)N3CCOCC3)cn2)c1	inconclusive: 29.1 µM [activator, single point]	–
COc1ccc(C/C(C)=N/NC(=S)Nc2ccccc2F)cc1	inconclusive: 29.1 µM [activator, single point]	–
COCCn1c(SCc2ccccc2)nc2c1c(=O)[nH]c(=O)n2C	inconclusive: 7.31 µM [falling, partial curve]	–
N#CC(C(=O)Nc1cccc(Cl)c1)=C1Nc2ccccc2N1	inconclusive: 32.6 µM [falling, partial curve, poor fit]	–
COc1ccc(CC2(CO)CCN(Cc3c(C)nn(C(C)C)c3C)CC2)cc1	inconclusive: 9.2 µM [falling, partial curve, poor fit]	–
C=CCn1c(C)cc(C(=O)COC(=O)/C=C/c2ccc(OC)cc2)c1C	inconclusive: 20.6 µM [falling, partial curve, poor fit]	–
COc1cccc(CNC(=O)CN2C(=O)CSc3c2c(C)nn3-c2ccccc2)c1OC	inconclusive: 29.1 µM [falling, single point]	–
S=c1[nH]c2cnc(Cl)nc2[nH]1	–	inactive: -4.33%
Cc1ccc(C)c(N2CCN(C(=O)Nc3ccc4c(c3)N(C)C(=O)CS4)CC2)c1	active: 16.4 µM	–
Cc1[nH]n(S(=O)(=O)c2ccccc2)c(=O)c1N=Nc1cccc(Cl)c1	inconclusive: 29.1 µM [falling, single point]	–
CCOc1ccc(C(=O)Nc2cccc(-n3cnnn3)c2)cc1OCC	inconclusive: 16.4 µM [falling, partial curve, poor fit]	–
Oc1c(C(c2ccccn2)N2CCC(Cc3ccccc3)CC2)cc(Cl)c2cccnc12 (stereo unspecified)	inconclusive: 16.4 µM [falling, partial curve, poor fit]	–
O=C(Nc1nc2ccsc2c(=O)s1)C1CCC1	inconclusive: 11.6 µM [activator, partial curve]	–
CCOC(=O)c1cnc2c(C)cc(C)cc2c1NCCc1ccc(OC)c(OC)c1	–	inactive: 2.82%
CCOC(=O)c1cccc(NC(=O)Cn2c(CC(=O)NC)nc3ccccc32)c1	inconclusive: 13 µM [falling, partial curve, poor fit]	–
Cc1ccc(-n2nc3c(c2NC(=O)c2ccc(S(=O)(=O)N4CCOCC4)cc2)CSC3)c(C)c1	inconclusive: 0.461 µM [falling, full curve, poor fit]	–
O=C(Nn1c(-c2ccncc2)nc2ccccc2c1=O)c1ccc(Br)cc1	inconclusive: 14.6 µM [falling, partial curve, poor fit]	–
COc1cc2c(cc1NC(=O)c1ccccc1F)CCCC2	inconclusive: 23.1 µM [activator, single point]	–
